{"source": "patent US9676780B2", "about": "“Piperazine-substituted [1,2,4]triazolo[1,5-C]quinazolin-5-amine compounds with A2A antagonist properties” (MERCK SHARP & DOHME CORP., priority 2012, dated 2017)", "molecular_target": "human A2a receptor (Homo sapiens, UniProt P29274)", "assay": "A2a receptor competition binding assay (Scintillation Proximity, tritiated radioligand)", "settings": "read-out: A2a EC50; membranes from HEK293 cells expressing the human A2a receptor; 0.5 nM tritiated ligand; SPA beads; one hour at room temperature", "note": "Structures were worked out from names or drawings and are uncertain.", "data": [{"compound": "COc1cc(F)cc2c1nc(N)n1nc(CN3CCN(c4ccc(Br)cc4)C(C)(C)C3)nc21", "values": [{"measurement": "EC50", "result": 5.7, "unit": "nM"}]}]}
